# PubChem BioAssay AID2685 (National Center for Advancing Translational Sciences (NCATS), 2010)
# The other results are listed elsewhere or left out. Shown are side measurements of this screen, not its main read-out; they come without a call. The list favours compounds with an active or inconclusive main result. The note in brackets gives the kind of curve behind each potency; many fits are weak.
# Assay: qHTS Assay for Lipid Storage Modulators in Drosophila S3 Cells;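 for cell number change: cells counted by Cell Tracker Red CMTPX staining in the red channel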
# Conditions: BODIPY lipid droplet fluorescence, 18-24 h; for cell number change: measured here: cell count max response, cells fed with added oleic acid
# Procedure, shortened: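 Drosophila S3 cells loaded with oleic acid (400 uM, as added) and compounds at several concentrations; lipid droplets imaged by 488-nm laser-scanning cytometry, 500–530 nm intensity and object ratio to cell channel. Percent activity normalized to 20 uM Triacsin C.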
# [1] = measured here: lipid fluorescence (Fed channel) AC50, cells fed with added oleic acid
# [2] = measured here: cell number channel AC50, cells fed with added oleic acid
SMILES,cell number change [%],AC50 [1],AC50 [2]
O=C(Nc1cccc(C(=O)Nc2ccc(Cl)cn2)c1)c1ccccc1,47,–,–
O=C(CN1CCN(C(C(=O)Nc2ccc(F)cc2)c2ccccc2)CC1)NC1CC1 (stereo not given),8.05,"6.51 µM [rising, single point]",–
COc1ccccc1CN(Cc1ccco1)S(=O)(=O)c1ccc(-n2cnnn2)c(OC)c1,-8.28,"6.51 µM [rising, partial curve, poor fit]",–
CN(C)/C=C/C(=O)c1cnc(-c2cccc(Cl)c2)s1,–,"0.13 µM [rising, full curve, poor fit]",–
Cc1cccc(-c2nc(CN3CCN(Cc4cccc(F)c4)CC3)c(C)o2)c1,2.05,"6.51 µM [rising, single point]",–
CCOc1ccc(NC(=S)N2CCN(C/C=C/c3ccccc3)CC2)cc1,–,"6.51 µM [rising, single point]","2.06 µM [rising, partial curve]"
Oc1c(Cl)cc(Cl)cc1CNc1ccccn1,4.21,"23.1 µM [falling, single point]",–
Cc1sc(NC(=S)NC(=O)C2CCCCC2)c(C(N)=O)c1C,-2.82,–,–
O=C(CSc1nnc2ccccn12)Nc1cccc(-c2nc3ccccc3s2)c1,25.4,"1.16 µM [rising, partial curve]",–
CC(C(=O)OCC(=O)Nc1ccc2c(c1)OCO2)N1C(=O)c2ccccc2C1=O (stereo not given),14.9,"29.1 µM [rising, partial curve, poor fit]",–
CCOc1ccccc1NC(=O)Cn1nnc(C(=O)NCc2cccs2)c1N,10.7,–,–
COC(=O)C1=C(N)OC2=C(C(=O)CC(C)(C)C2)C1c1cccnc1 (stereo not given),-19.9,–,–
CCOc1ccccc1NC(=O)c1cc(-c2ccncc2)nc2c(Cl)cccc12,28.3,–,–
CCOC(=O)c1c(C)oc2c1c(C(c1cccnc1)N1CCOCC1)c(O)c1ccccc12 (stereo not given),-21.6,"18.4 µM [rising, single point]",–
COc1ccccc1NC(=O)C(C)OC(=O)c1cccc(-n2cnnn2)c1 (stereo not given),73.5,–,"10.3 µM [rising, partial curve]"
O=C(NCc1ccc(N2CCCC2=O)cc1)c1cc(COc2c(F)cccc2F)on1,-20.5,–,–
OCCN1C2=NCCCN2c2ccccc21,-18.6,–,–
O=C(NCc1ccccn1)c1c(Cl)cccc1Cl,-0.912,"0.00461 µM [falling, full curve, poor fit]",–
O=C(NCC1CCCO1)c1cc([N+](=O)[O-])ccc1Cl (stereo not given),-63.2,"9.2 µM [falling, partial curve]","5.8 µM [falling, full curve]"
CC(=O)c1ccccc1OCc1ccc(S(=O)(=O)Cc2ccccc2)cc1,1.17,"29.1 µM [falling, single point]",–
O=C(Nc1nccs1)c1c(O)c2cccc3c2n(c1=O)CCC3,-0.419,"16.4 µM [rising, single point]",–

SMILES,cell number change [%],AC50 [1],AC50 [2]
COc1cc(/C=C/c2ccc3cccc([N+](=O)[O-])c3n2)ccc1OCC(=O)O,57.4,"5.8 µM [falling, single point]","29.1 µM [rising, single point]"
O=C(NCc1ccccc1)c1ccc(C(=O)N(C2CCCCC2)C2CCCCC2)cc1,-64.1,"1.3 µM [rising, full curve, poor fit]","29.1 µM [falling, single point]"
CN(CCO)c1ccc([N+](=O)[O-])cc1C(=O)O,-96.5,–,"29.1 µM [falling, single point]"
Cc1cc(=O)oc2cc(NC(=O)C3CC(=O)N(Cc4ccccc4)C3)ccc12 (stereo not given),-25,"18.4 µM [rising, single point]",–
C=CCN(c1ccc(F)cc1)S(=O)(=O)c1cc(C(=O)NC2CCC(O)CC2)ccc1Cl (stereo not given),-2.33,–,–
CCOC(=O)c1sc(-c2ccccc2)cc1NC(=O)Nc1ccc([N+](=O)[O-])cc1,33.3,–,"32.6 µM [rising, single point]"
Nc1nc2c(ncn2COCCO)c(=O)[nH]1,17.6,"29.1 µM [falling, single point]",–
COc1ccc2c(c1)C1(C)CC(C)(C)N2C(=O)N1c1ccccc1 (stereo not given),-39,"18.4 µM [falling, partial curve]","8.2 µM [falling, partial curve]"
Cc1oc(-c2ccc(Cl)cc2)nc1CSCC(=O)NC1CCN(Cc2ccccc2)CC1,-0.989,"29.1 µM [falling, single point]","0.0411 µM [rising, full curve, poor fit]"
Cc1cccc(C(=O)Nc2ccc(C(=O)N3CCCCC3C)cc2)c1 (stereo not given),-19.8,–,–
Cc1ccc(OCC(=O)N/N=C/c2cccc3cccnc23)cc1,-28.2,"7.31 µM [falling, partial curve, poor fit]",–
CS(=O)(=O)c1ccc(-n2c(=O)n(Cc3ccccc3)c(=O)c3[nH]cnc32)cc1,23.5,"20.6 µM [rising, single point]",–
CCC(CCC(=O)Nc1nncs1)C(=O)O (stereo not given),-71.9,"20.6 µM [falling, partial curve]","29.1 µM [falling, single point]"
O=C(CSc1nc(=O)n2cc(Cl)ccc2n1)Nc1ccc2c(c1)OCCO2,–,"18.4 µM [rising, single point]",–
CCCP(=O)(CC(=O)O)c1ccccc1 (stereo not given),-29.6,–,"3.66 µM [falling, full curve, poor fit]"
FC(F)(F)c1cc(-c2ccccc2)nc(-n2cncn2)n1,–,"0.58 µM [rising, full curve]","0.461 µM [rising, full curve]"
COc1cc(NC(=O)Cn2nnc(-c3ccccc3N)n2)cc(OC)c1,24.4,"7.31 µM [rising, partial curve]","4.11 µM [rising, full curve, poor fit]"
CCN(CC)CCCNCC(=O)Nc1ccc2c(c1)CCC2,-98.6,–,–
COc1ccc(NC(=O)c2c(C)noc2C(C)C)cc1S(=O)(=O)N1CCCCC1,5.76,"20.6 µM [rising, single point]",–
COc1ccc(-n2c(COc3ccccc3)nnc2SCC(N)=O)cc1,–,"0.651 µM [falling, partial curve, poor fit]","0.58 µM [falling, full curve, poor fit]"
O=C(CSc1nc2ccccc2[nH]1)Nc1nc(-c2ccc(Br)cc2)cs1,-30.5,"6.51 µM [rising, partial curve, poor fit]","29.1 µM [falling, single point]"

# Single records, as listed above. Order of values: cell number change [%] | AC50 [1] | AC50 [2]
# O=C(NCc1ccccn1)c1c(Cl)cccc1Cl reads -0.912 | 0.00461 µM [falling, full curve, poor fit] | –
# FC(F)(F)c1cc(-c2ccccc2)nc(-n2cncn2)n1 reads – | 0.58 µM [rising, full curve] | 0.461 µM [rising, full curve]
# COc1ccc2c(c1)C1(C)CC(C)(C)N2C(=O)N1c1ccccc1 (stereo not given) reads -39 | 18.4 µM [falling, partial curve] | 8.2 µM [falling, partial curve]
# O=C(Nc1nccs1)c1c(O)c2cccc3c2n(c1=O)CCC3 reads -0.419 | 16.4 µM [rising, single point] | –

# More results.

SMILES,cell number change [%],AC50 [1],AC50 [2]
CC1CN(c2ccc([N+](=O)[O-])c(NCCOc3ccccc3)c2)CC(C)N1 (stereo not given),-32.5,–,"18.4 µM [falling, partial curve, poor fit]"
Cc1cc(C)n2nc(C(=O)OCC(=O)NNC(=O)c3ccccc3)nc2n1,-12.3,"10.3 µM [rising, partial curve]",–
CC1Sc2n(c3ccccc3[n+]2C)N=C1c1ccccc1 (stereo not given),-21.8,"18.4 µM [falling, single point]",–
Nc1[nH]c(=O)[nH]c(=O)c1N=Nc1ccc(C(=O)O)cc1,-10,"4.11 µM [rising, single point]",–
Cc1ccnc(NC(=O)CCC(=O)N(CC(=O)NCc2ccc(F)cc2)c2ccc(F)cc2)c1,24.4,–,–
COC(=O)c1cc(NC(=O)CSc2nnc(CN3CCOCC3)n2C)ccc1Cl,-5.81,"6.51 µM [rising, single point]",–
CC(C)OC(=S)N/C(=N\S(=O)(=O)c1ccccc1)c1ccccc1,–,–,"4.61 µM [falling, single point]"
C=CCn1cc(/C=C2/NC(=O)NC2=O)c2ccccc21,–,–,"0.164 µM [rising, full curve, poor fit]"
COC(=O)c1cc(NC(=O)c2c(F)c(F)c(F)c(F)c2F)cc(C(=O)OC)c1,7.77,–,–
Cc1cccc(C)c1NC(=S)NC(=O)c1ccc(Br)o1,-52.2,"29.1 µM [falling, single point]","0.461 µM [falling, partial curve, poor fit]"
Cc1cccc(NS(=O)(=O)c2ccc(-c3cnc(C4CC4)o3)cc2)c1C,-9.14,"6.51 µM [rising, partial curve]","3.26 µM [rising, single point]"
O=C(Nc1ccccc1O)N1c2ccccc2Sc2ccccc21,-0.525,–,–
OC(COCc1ccc2c(c1)OCO2)CN1CCC(Cc2ccccc2)CC1 (stereo not given),-136,–,–
O=C(Nc1cccc(S(=O)(=O)N2CCCCC2)c1)c1cccs1,44.7,–,"6.51 µM [rising, full curve, poor fit]"
Cc1ccc(-c2nc(CS(=O)CC(=O)NCCN3CCCCCC3)c(C)o2)cc1 (stereo not given),-13.3,"0.146 µM [rising, full curve, poor fit]",–
CC1CCC(N2CCNCC2)CC1 (stereo not given),9.05,"6.51 µM [falling, single point]",–
Cc1cccc(N2CC(C(=O)Nc3nnc(SCCC4OCCO4)s3)CC2=O)c1 (stereo not given),8.25,"3.98 µM [rising, full curve, poor fit]",–
CN1CCN(C(=O)CN(C)S(=O)(=O)c2cc(Cl)ccc2Cl)CC1,6.58,–,–
CCc1ccc(-c2cc(C)no2)cc1S(=O)(=O)N1CCC(C)CC1,-11.9,–,–
CCc1nnc(NC(=O)CSc2nnc(CNc3ccc(OC)cc3)n2CC)s1,16.8,"1.64 µM [rising, partial curve, poor fit]","2.59 µM [rising, partial curve, poor fit]"
